Here are results for one compound from ChEMBL document CHEMBL1130383, “Anesthetic activity of novel water-soluble 2 beta-morpholinyl steroids and their modulatory effects at GABAA receptors” (J Med Chem, 1997).

The target in the assay is GABA-A receptor; anion channel. Description: The concentration required to inhibit 50% of binding of [35S]TBPS to Gamma-aminobutyric acid A receptor to rat whole brain membranes. Format: cell membranes.

pIC50: −log10 of the molar value.

For orientation: pIC50 means the negative decadic logarithm of the IC50, by convention in mol/L. Higher therefore signals a low IC50. For `CC(=O)[C@H]1CC[C@H]2[C@@H]3CC[C@H]4C[C@H](O)CC[C@]4(C)[C@H]3C(=O)C[C@]12C` [ALFAXALONE], the pIC50 is 6.27.
